System: sciatic nerve
Assay: toluidine blue staining of sciatic nerve (myelinated axons, G-ratio)
Format: in vivo, mice (C57BL/6J)
Conditions: 4 weeks; for number of myelinated neurons in sciatic nerve: paclitaxel alone or paclitaxel with GSSSG 50 mg/kg/day oral, vs control; for thickness of myelin (G-ratio): paclitaxel without or with GSSSG 50 mg/kg/day oral
Method: Paclitaxel (Sigma-Aldrich) was dissolved with ethanol and cremophor (1:1) and diluted with normal saline (1:4). Peripheral neuropathy was induced in mice by intraperitoneal (i.p.) administration of 4 mg/kg paclitaxel every other day for a total of 4 injections (cumulative dose of 16 mg/kg), according to a previously described protocol. A stable, crystallized form of GSSSG was produced and provided by Kyowa Hakko Bio CO., LTD. GSSSG was pulverized and mixed in 0.5% methylcellulose. To evaluate the therapeutic effects of GSSSG in a model of PIPN, mice were randomly divided into three groups of 6. Mice were treated with: 1) paclitaxel alone; 2) paclitaxel and GSSSG; 3) or vehicle alone (control). Mice in groups 1 and 2 received paclitaxel as described above, while mice in the control group received the same volume of vehicle. The first dose of GSSSG was given within 1 hour after the first PTX injection. Treatment was administered as oral gavage for 28 days with GSSSG at 50 mg/kg/day (group 2) or 0.5% methylcellulose (groups 1 and 3). The dose of GSSSG was determined based on pilot studies. To determine the effect of GSSSG on the development of PIPN, behavioral tests to assess allodynia and hyperalgesia were conducted on all mice on days-1 (baseline), 7, 14, 21, and 28 after paclitaxel administration. Behavioral tests were performed by an investigator who was blinded to the treatment groups, as described in the next section.
Four weeks after paclitaxel treatment, sciatic nerves were evaluated by toluidine blue staining as described previously. Briefly, mice were deeply anesthetized, and their sciatic nerves were exposed in the prone position. Sciatic nerve was covered with Trump's fixative (Quimigen, Cat No. 11750) for 10 minutes. Subsequently, it was harvested and fixed in the same fixative for one week by changing the fixative every other day. Samples were immersed in 2% osmium tetroxide (TGI, Cat No. O0308) for 2 hours and embedded in Resin-Epoxy medium (Sigma-Aldrich, Cat No. 45359-4) overnight at 60° C. by following the protocol provided by the manufacturer. The embedded nerve block was sectioned at 1 μm by an ultramicrotome (Reichert-Jung, Ultracut E, Austria) and stained in 1% toluidine blue (Sigma-Aldrich, Cat No. T3260). Two images per mouse (6 mice per group) were taken by light microscopy (Nikon Eclipse 80i, Nikon Instruments, Inc., Melville, NY) and analyzed by ImageJ. Thickness of myeline was evaluated by G-ratio, a ratio of inner radius over outer radius. G-ratio was calculated using GRatio software, an ImageJ plugin available online (http://gratio.efil.de/) that converts inner and outer perimeter of myelin to the radius. Counting neurons and measuring the size were conducted by an examiner who was blinded to the treatment of mice.

Row | Compound | number of myelinated neurons in sciatic nerve | thickness of myelin (G-ratio)
1 | N[C@@H](CCC(=O)N[C@@H](CSSSC[C@H](NC(=O)CC[C@H](N)C(=O)O)C(=O)NCC(=O)O)C(=O)NCC(=O)O)C(=O)O [GSSSG, glutathione trisulfide] | similar | not affected
2 | CC(=O)O[C@H]1C(=O)[C@@]2(C)[C@H]([C@H](OC(=O)c3ccccc3)[C@]3(O)C[C@H](OC(=O)[C@H](O)[C@@H](NC(=O)c4ccccc4)c4ccccc4)C(C)=C1C3(C)C)[C@]1(OC(C)=O)CO[C@@H]1C[C@@H]2O [paclitaxel, Paclitaxel, reference compound] | similar | not affected

Reference: patent US20260097091A1, “ADMINISTRATION OF GLUTATHIONE TRISULFIDE TO AMELIORATE PERIPHERAL NEUROPATHY” (The General Hospital Corporation, priority 2022, published 2026)
